Source: publication PMC6508782
No constants are given. Whether binding was seen depends on the method and setting. Binding can be weak; no strength is given.

T1: endogenous Hcf106 (Pisum sativum (endogenous in pea thylakoid)) (UniProt Q94G16)
T1 sequence: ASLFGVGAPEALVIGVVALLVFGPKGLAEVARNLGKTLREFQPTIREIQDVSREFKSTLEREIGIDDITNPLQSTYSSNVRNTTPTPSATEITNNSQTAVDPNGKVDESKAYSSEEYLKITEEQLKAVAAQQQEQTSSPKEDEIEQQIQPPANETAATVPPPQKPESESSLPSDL


Columns and labels:
[1] = molecular target: T1, endogenous Hcf106 (Pisum sativum (endogenous in pea thylakoid)); assay: native gel or EMSA; increasing [3H]Hcf106 1-107 (1:60, 1:12, 1:6, 1:3 dilutions of the translation) integrated into thylakoid, digitonin, BN-PAGE, fluorography and immunoblots with anti-Hcf106 and anti-cpTatC
[2] = molecular target: endogenous cpTatC (Pisum sativum (endogenous in pea thylakoid)); assay: native gel or EMSA; [3H]Hcf106 variants integrated into isolated pea thylakoid, solubilised with 2% digitonin at ~1 mg/ml chlorophyll, BN-PAGE, fluorography; read-out: migration in the ~700-kDa cpTatC/Hcf106 receptor complex
[3] = molecular target: endogenous cpTatC (Pisum sativum (endogenous in pea thylakoid)); assay: native gel or EMSA; increasing [3H]Hcf106 1-107 (1:60, 1:12, 1:6, 1:3 dilutions of the translation) integrated into thylakoid, digitonin, BN-PAGE, fluorography and immunoblots with anti-Hcf106 and anti-cpTatC

| binding [2] | Molecule | further results |
| --- | --- | --- |
|  | Hcf106_(1–107) (Pisum sativum) (domain or fragment) | binding [1]: binds |
| binds | wild-type Hcf106 (mature, in vitro translated, thylakoid-integrated) (protein, UniProt Q94G16 87-261) ASLFGVGAPEALVIGVVALLVFGPKGLAEVARNLGKTLREFQPTIREIQDVSREFKSTLEREIGIDDITNPLQSTYSSNVRNTTPTPSATEITNNSQTAVDPNGKVDESKAYSSEEYLKITEEQLKAVAAQQQEQTSSPKEDEIEQQIQPPANETAATVPPPQKPESESSLPSDL |  |
| binds | Hcf106V17C (protein, UniProt Q94G16 87-261) ASLFGVGAPEALVIGVCALLVFGPKGLAEVARNLGKTLREFQPTIREIQDVSREFKSTLEREIGIDDITNPLQSTYSSNVRNTTPTPSATEITNNSQTAVDPNGKVDESKAYSSEEYLKITEEQLKAVAAQQQEQTSSPKEDEIEQQIQPPANETAATVPPPQKPESESSLPSDL |  |
|  | endogenous Hcf106 (protein, UniProt Q94G16 87-261) ASLFGVGAPEALVIGVVALLVFGPKGLAEVARNLGKTLREFQPTIREIQDVSREFKSTLEREIGIDDITNPLQSTYSSNVRNTTPTPSATEITNNSQTAVDPNGKVDESKAYSSEEYLKITEEQLKAVAAQQQEQTSSPKEDEIEQQIQPPANETAATVPPPQKPESESSLPSDL | binding [3]: binds |
